PubChem BioAssay AID1671195 | Yale University, 2021
The whole screen tested about 22,000 reagents; shown is a random part of them. Of all reagents, about 1,510 (6.9%) are marked active. 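Active includes knockdowns raising or lowering LDL uptake; positive z-scores mean more uptake, negative mean less.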 A number with no mark means an inactive call. No sequences are given here.

- Purpose: 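Genes whose knockdown alters LDL uptake in liver cancer cells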 (primary screen)
- System: human Huh7 hepatoma cells
- Reagent: siRNA pool against human genes, 18 nM
- Duration: about 2 to 2.5 days of knockdown, then 8 h LDL uptake
- Treatment: DiI-labelled LDL at 30 µg/ml for 8 h, in lipoprotein-deficient serum medium
- Measured: 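Fluorescent LDL signal imaged in cells, scaled to the plate median, robust z-score for each replicate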
- Direction: robust z-score: higher = more LDL uptake after knockdown
- Rule for the call: 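Active when two or more replicates show a robust z-score above 2 or below -2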

| Target gene | robust z-score, replicate 1 | robust z-score, replicate 2 | robust z-score, replicate 3 |
| --- | --- | --- | --- |
| TIMMDC1 | 0.216 | 0.411 | 0.444 |
| KCTD16 (potassium channel tetramerization domain containing 16) | -0.77 | -1.04 | -1.13 |
| TMEM203 (transmembrane protein 203) | 1.43 | 1.07 | 1.6 |
| POC1B (POC1 centriolar protein B) | -0.55 | -0.342 | -0.531 |
| NTAQ1 (N-terminal glutamine amidase 1) | -1.17 | -2.08 | -1.12 |
| LOC387789 (retired record) | 0.901 | 2.71 | 1 |
| KRTAP4-2 (keratin associated protein 4-2) | 0.137 | -0.304 | -0.386 |
| GDAP2 (ganglioside induced differentiation associated protein 2) | 0.201 | 1.22 | 0.258 |
| TBC1D8 (TBC1 domain family member 8) | 1.97 (active) | 2.34 | 1.89 |
| TEX13B (testis expressed 13B) | 1.97 | 1.79 | 0.776 |
| RBBP5 | 0.251 | 0.39 | 0.288 |
| PSMB8 (proteasome 20S subunit beta 8) | -1.95 | -1.89 | -1.9 |
| LRRC3 (leucine rich repeat containing 3) | -2.42 (active) | -2.38 | -2.08 |
| LINC01061 (long independently transcribed non-coding RNA 1061) | 0.414 | 0.0157 | 0.411 |
| SAP18P2 (SAP18 pseudogene 2) | -1.08 | -1.45 | -1.5 |
| ZNF337 (zinc finger protein 337) | 0.646 | -0.0239 | 1.54 |
| C8B (complement C8 beta chain) | -0.259 | -0.649 | 0.706 |
| CREB3L3 (cAMP responsive element binding protein 3 like 3) | 4.07 | 3.01 | 2.54 |
| CCDC88B (coiled-coil and HOOK domain protein 88B) | -0.209 | -0.189 | -0.232 |
| WDSUB1 (WD repeat, sterile alpha motif and U-box domain containing 1) | -0.879 | -1.51 | 0.0172 |
| CREB3 (cAMP responsive element binding protein 3) | 1.67 | 1.38 | 0.342 |
| FAM168B (family with sequence similarity 168 member B) | -0.694 | -1.78 | -1.68 |
| ASB16 (ankyrin repeat and SOCS box containing 16) | 1.02 | 1.19 | 1.31 |
| TLN1 (talin 1) | 0.123 | 0.582 | 1.12 |
| RNF123 (ring finger protein 123) | -0.0325 | 0.099 | -0.541 |
| ZNF473CR (ZNF473 cis regulating lncRNA) | 0.33 | 0.338 | 0.217 |

Entries above whose gene name starts with P or p (2):
| Target gene | robust z-score, replicate 1 | robust z-score, replicate 2 | robust z-score, replicate 3 |
| --- | --- | --- | --- |
| POC1B (POC1 centriolar protein B) | -0.55 | -0.342 | -0.531 |
| PSMB8 (proteasome 20S subunit beta 8) | -1.95 | -1.89 | -1.9 |

The listing continues:
| Target gene | robust z-score, replicate 1 | robust z-score, replicate 2 | robust z-score, replicate 3 |
| --- | --- | --- | --- |
| FMR1NB (FMR1 neighbor) | -1.12 | -0.91 | -1.2 |
| LINC02716 (long independently transcribed non-coding RNA 2716) | 0.126 | 0.467 | -0.293 |
| LOC389228 (retired record) | -0.265 | -0.0774 | 0.0372 |
| SBSN (suprabasin) | 0.465 | 0.71 | 0.429 |
| FLJ42258 (retired record) | -0.247 | -0.0963 | -0.852 |
| OR6F1 (olfactory receptor family 6 subfamily F member 1) | 1.91 | 1.85 | 1.74 |
| DKFZp434E1119 (retired record) | -1.04 | -0.999 | -1.54 |
| LINC02145 (long independently transcribed non-coding RNA 2145) | -2.46 (active) | -2.55 | -2.68 |
| TAF1B | 1.48 | -0.154 | -0.127 |
| SS18L2 (SS18 like 2) | -0.164 | 0.738 | 0.121 |
| MFRP (membrane frizzled-related protein) | -0.271 | -0.308 | 0.77 |
| LAMP3 (lysosome associated membrane protein 3) | -1.46 | -0.456 | -1.56 |
| SLCO1B7 | -0.278 | -0.192 | 0.0862 |
| TADA3 (transcriptional adaptor 3) | 0.251 | 0.171 | -0.0784 |
| LRRC36 (leucine rich repeat containing 36) | -0.79 | 0.398 | -0.748 |
| CFL2 (cofilin 2) | 0.166 | -0.069 | -0.703 |
| ISCA1 (iron-sulfur cluster assembly 1) | 0.856 | 1.48 | 1.49 |
| RHOU (ras homolog family member U) | -1.78 | -0.896 | -1.53 |
| KRT20 (keratin 20) | -2.32 | -1.63 | -1.67 |
| PCM1 (pericentriolar material 1) | -0.174 | -0.796 | 0.139 |
